Most values lie at the floor of the assay. Slopes are relative: functional sequences can read slightly below zero.
System: Saccharomyces cerevisiae PS128 hsf1 delta, HSF1(1-493) fusion
Experiment: growth estimate (transactivation domain function in HSF1 fusion, heat-shock survival) (a.u. (slope of normalised read count over time)); higher = stronger growth at 37°C, i.e. more transactivation activity
Settings: library: random library
Description: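 Random 60-nt DNA library encoding peptides of up to 20 aa, fused to the C-terminus of yeast HSF1 residues 1-493 (C-terminal TAD deleted) and expressed from the native HSF1 promoter on a CEN plasmid in hsf1-deleted S. cerevisiae PS128. Cells were selected at 37°C on -trp 5-FOA plates for 0, 2, 4, 6 and 8 days and amplicons were sequenced. Growth estimate is the slope of a robust linear fit of total-sum-normalised read counts (normalised to the first time point) over time, using at least 2 replicates. Sequences are classed functional (TAD activity) above a threshold of -0.13, set from stop-codon control sequences.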

| Substance | growth estimate |
| --- | --- |
| LVPVSRDSQLTSTI | -0.149 |
| NCRLGARGVPGGEGVSFLEE | < -0.25 |
| VSRT | < -0.25 |
| RTRMSLRILIYTQCTSSFGS | < -0.25 |
| NLIRE | < -0.25 |
| SEGPKRVRIDLAPAGGAQLT | < -0.25 |
| RTWIDSFGEVSRSSRSIGQQ | < -0.25 |
| AKIPKRRPLTLILA | < -0.25 |
| RWGP | < -0.25 |
| MLCIRVDVSEHTLTLP | < -0.25 |
| ARKTVDN | < -0.25 |
| FHLAYPGVGGEIDKTQSSCV | < -0.25 |
| QYPGDFGGIRTLGVTMVSL | < -0.25 |
| NPDLVGQYFFTSRLASSTAV | < -0.25 |
| LPYSVLLIQAWRLYSESGQQ | < -0.25 |
| TTHH | < -0.25 |
| GVRGPVGCSIGATVAQGTGP | < -0.25 |
| CISQV | < -0.25 |
| GGAMLLPTPGLREQTSAVIS | < -0.25 |
| GRL | < -0.25 |
| RALWRT | < -0.25 |
| TKCRSTAALQWFKGEYVPGH | < -0.25 |
| GNGVGGSPFIGNLAVILMSS | < -0.25 |
| RPLSSSLDDLSSYGCRASSL | < -0.25 |
| IQLPFLVRMLRACRTSPG | < -0.25 |

| Substance | growth estimate |
| --- | --- |
| CVSRRQP | < -0.25 |
| CRESRTHEGRGRLVRRAPIL | < -0.25 |
| ESNYEVP | < -0.25 |
| SWCNGAGQANLGLNGTM | < -0.25 |
| FIWII | < -0.25 |
| TGRDCTT | < -0.25 |
| NRRCLCQPK | < -0.25 |
| VRIIRQ | < -0.25 |
| DIALRQPNSSDESLPIQSIC | < -0.25 |
| RNSCAGTRPIKIAFSQGLDA | < -0.25 |
| RPPKHQEGVRQVLRFESRTR | < -0.25 |
| TKTRLGARGVAVPAARKPIR | < -0.25 |
| DSHRTYWAYTSGSD | < -0.25 |
| SPAFNSTAPGSDRGQWGWLF | < -0.25 |
| VIRPGRVTRSSVTIKSPVTP | < -0.25 |
| NTT | < -0.25 |
| LKNKPRNTAVDTRTLLF | < -0.25 |
| SEEGSGLLTQRNYGDRSFKR | < -0.25 |
| LCAESGESNHLSRCRERKKS | < -0.25 |
| GAIKRNLLNLTVCHSGNVVD | < -0.25 |
| PRSLIVHARGGREGHPGVHV | < -0.25 |
| LQY | -0.145 |
| CRYGWPAFPSVEQVPDGLQA | < -0.25 |
| TYWASQGIAIFVARSTIYKA | < -0.25 |
| IRSAVTGLIRFLGCLGRGSH | < -0.25 |

| Substance | growth estimate |
| --- | --- |
| RGPLAGHALG | < -0.25 |
| CGLIDRAIINLPSRLTS | < -0.25 |
| AKD | < -0.25 |
| RNQKSGPRGCISCEFPNWCS | < -0.25 |
| PSSGLVRRLDQERVPPC | -0.243 |
| LDEWDWRSKTSAFLSKGC | < -0.25 |
| SATTSPNPEKFY | < -0.25 |
| TMRTEFPAIARWTLGRIA | < -0.25 |
| RHLLRHCVQLGSAP | < -0.25 |
| LQLDYDD | < -0.25 |
| LEFSWHLLANVRRDVSYMDA | < -0.25 |
| GRRLKGER | < -0.25 |
| YWWLRPDLSHGETYRMFYSS | < -0.25 |
| WIGVID | < -0.25 |
| LSDVREC | < -0.25 |
| PEHTPWV | < -0.25 |
| VTGLPAAVSLGSLIDAGWNA | < -0.25 |
| SQSLCLVGWPGNYVRSVAPT | < -0.25 |
| QYGLHCCATS | -0.245 |
| FVDLRRREYSMNSSLIFRRQ | < -0.25 |
| KLT | < -0.25 |
| KYFLYPREDNGIPLKLSSRN | < -0.25 |
| SAAWIYIYPSICQGLRGARW | < -0.25 |
| RCRVVFEIWSCSNLGGRHDY | < -0.25 |
| IRRLRYIEVYLRGFR | < -0.25 |

| Substance | growth estimate |
| --- | --- |
| SLLL | < -0.25 |
| GYYDRDQTPAKS | < -0.25 |
| ILHLLSLSDGPCGD | < -0.25 |
| RSFTSHGSNGP | < -0.25 |
| SNSVHCCAAL | < -0.25 |
| GQN | < -0.25 |
| VPGAQHLPCSGRCGRRSEN | < -0.25 |
| LSQFS | < -0.25 |
| GWGLDKTQGC | < -0.25 |
| RFVYK | < -0.25 |
| CYGHGPLEVFGGDL | -0.248 |
| IIL | < -0.25 |
| QGVDGNPQKFGVECRTTMSS | < -0.25 |
| PQMDGQGSRDEQTVGSAGQH | < -0.25 |
| AYLVGLRKAVSSLNPNSLSC | < -0.25 |
| APNSPYAPSALGTAGMESHA | < -0.25 |
| HHSLWSAIWGVQAGAELLFR | < -0.25 |
| RFLICTELDLRCRTSSSESQ | < -0.25 |
| IIPSGTFRLRVGSGVGKRES | < -0.25 |
| CSIPYQELSCGGR | < -0.25 |
| DLAP | -0.245 |
| ESCGDVAARNV | < -0.25 |
| GSFAPS | -0.246 |
| WQQLTD | < -0.25 |
| IRRSSRWR | < -0.25 |

| Substance | growth estimate |
| --- | --- |
| AGNRSFTGLRQPRMDVALWV | < -0.25 |
| EKLLVLRRLILLGRAVSMSS | < -0.25 |
| VTQGGFGRHGWLKGTGSIAG | < -0.25 |
| IIERDVVNSKDVMSGRWGFY | -0.111 |
| GYKFTL | < -0.25 |
| VIQRCMLAEGT | < -0.25 |
| GLRRCRRSSDNRVMALRIAG | < -0.25 |
| CVGQAGRHGKLRNTRRGGSC | < -0.25 |
| GSNTWSLENVGLRILDRYYY | < -0.25 |
| YGALAATYLRDDVGSLG | < -0.25 |
| GQLVSRVCIRRQPKTSQPHC | < -0.25 |
| LQAIQASIRYCYWDRGGTTG | < -0.25 |
| PIRLIGPPTGYFYGMYVQLA | < -0.25 |
| QCGRSGAPAHRMGCTSFDSL | < -0.25 |
| YMGIGYTSRQGRHNTGGGGS | < -0.25 |
| ELTVVFGTNRL | -0.246 |
| LCSASGASIPI | < -0.25 |
| IAAP | < -0.25 |
| LVRCKIVSR | < -0.25 |
| RGSQCIFTGPLGGRKCFPSD | < -0.25 |
| GLKCSLESREA | < -0.25 |
| RMTV | < -0.25 |
| SIGFRCGQNKSGIDNGNTLL | < -0.25 |
| NPDLRGDAKFDTVSWLCLTV | < -0.25 |
| QADTCLRAQAQMKIISRCFC | < -0.25 |

5 entries picked at random from those above:

| Substance | growth estimate |
| --- | --- |
| IAAP | < -0.25 |
| GYKFTL | < -0.25 |
| VTQGGFGRHGWLKGTGSIAG | < -0.25 |
| VIQRCMLAEGT | < -0.25 |
| RMTV | < -0.25 |

Further records:

| Substance | growth estimate |
| --- | --- |
| LVRSWDVGERVTTRECLYTS | < -0.25 |
| CYNGCSGLLHNWPNRSRAFV | < -0.25 |
| DVDAHRFCSVGLNGYRMISV | < -0.25 |
| QLTRT | < -0.25 |
| GNRLYLE | < -0.25 |
| FHNTSTMMDAHPDRV | < -0.25 |
| GGQK | < -0.25 |
| GKIRRRT | < -0.25 |
| GVMAEWDKRVHRIM | < -0.25 |
| TDDLGDCKGILG | -0.243 |
| TMICGCRVAGPIHCTVAEWS | < -0.25 |
| LLYAMRSLIHHADRRHARSR | < -0.25 |
| LSEPWYAEKFPTLTVSGKPN | < -0.25 |
| HKDHQVVK | < -0.25 |
| LSQSGGFRGVLTSQEGVQLP | -0.243 |
| EQPVRADVSRFNEGCSLTSA | < -0.25 |
| MGYVKQTETGKASLILVMAD | -0.231 |
| HGGF | < -0.25 |
| ILHGL | < -0.25 |
| TSCGREPIVLGRSSPSVTIS | < -0.25 |
| VLSDKSYPGLMRRIKNSNAS | -0.247 |
